# Data from article PMC11589570, “Critical assessment of LC3/GABARAP ligands used for degrader development and ligandability of LC3/GABARAP binding pockets” (Nature Communications, 2024).
# Where “and” joins values, the source holds several entries; their conditions need not be identical. Equal entries are not always repeated. Further values from the same series stand in other lists.
# System: RPE1 cells
# Assay: Cell growth assay (IncuCyte confluence over 72 h)
# Assay type: cell-based
# Procedure, shortened: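 Phase confluence (% area covered by cells) imaged every 2 h for 72 h after compound addition; cells in DMEM/10% FBS, seeded 24 h before treatment. Controls were 0.1% DMSO, 250 nM Torin1 and 200 ng/mL Bafilomycin (final). Each point averages three wells.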
structure (smiles),measurement,setting,value
O=C1Nc2ccc(Br)cc2C1=Cc1cc(O)c(O)c(Br)c1 [compound 1],RPE1 cell growth,"5 uM, 70 h, listed as AN1",95 and 61 and 84
same,RPE1 cell growth,"5 uM, 72 h, listed as AN1",97 and 62 and 88
same,RPE1 cell growth,"5 uM, time 20 h, listed as AN1",47 and 36 and 40
same,RPE1 cell growth,"5 uM, time 22 h, listed as AN1",49 and 38 and 43
same,RPE1 cell growth,"5 uM, time 24 h, listed as AN1",56 and 39 and 44
same,RPE1 cell growth,"5 uM, time 26 h, listed as AN1",60 and 42 and 47
same,RPE1 cell growth,"5 uM, time 28 h, listed as AN1",62 and 45 and 49
same,RPE1 cell growth,"5 uM, time 30 h, listed as AN1",67 and 51 and 53
same,RPE1 cell growth,"5 uM, time 32 h, listed as AN1",72 and 53 and 57
same,RPE1 cell growth,"5 uM, time 34 h, listed as AN1",75 and 58 and 60
same,RPE1 cell growth,"5 uM, time 36 h, listed as AN1",80 and 63 and 64
same,RPE1 cell growth,"5 uM, time 38 h, listed as AN1",82 and 66 and 68
same,RPE1 cell growth,"5 uM, time 40 h, listed as AN1",87 and 70 and 72
same,RPE1 cell growth,"5 uM, time 42 h, listed as AN1",90 and 73 and 76
same,RPE1 cell growth,"5 uM, time 44 h, listed as AN1",92 and 78 and 81
same,RPE1 cell growth,"5 uM, time 46 h, listed as AN1",95 and 83 and 85
same,RPE1 cell growth,"5 uM, time 48 h, listed as AN1",97 and 88 and 89
same,RPE1 cell growth,"5 uM, time 50 h, listed as AN1",98 and 91 and 92
same,RPE1 cell growth,"5 uM, time 52 h, listed as AN1",99 and 95
same,RPE1 cell growth,"5 uM, time 54 h, listed as AN1",99 and 97
same,RPE1 cell growth,"5 uM, time 56 h, listed as AN1",100 and 99 and 98
same,RPE1 cell growth,"5 uM, time 58 h, listed as AN1",100 and 99
same,RPE1 cell growth,"5 uM, time 60 h, listed as AN1",100 and 99
same,RPE1 cell growth,"5 uM, time 62 h",100
same,RPE1 cell growth,"5 uM, time 64 h",100
same,RPE1 cell growth,"5 uM, time 66 h",100
same,RPE1 cell growth,"5 uM, time 68 h",100
same,RPE1 cell growth,"5 uM, time 70 h",100
same,RPE1 cell growth,"5 uM, time 72 h",100
same,RPE1 cell growth,"10 uM, 0 h, listed as AN1",27 and 26 and 18
same,RPE1 cell growth,"10 uM, 2 h, listed as AN1",34 and 30 and 21
same,RPE1 cell growth,"10 uM, 4 h, listed as AN1",39 and 29 and 25
same,RPE1 cell growth,"10 uM, 6 h, listed as AN1",46 and 29 and 27
same,RPE1 cell growth,"10 uM, 8 h, listed as AN1",45 and 33 and 29
same,RPE1 cell growth,"10 uM, 22 h, listed as AN1",57 and 44 and 38
same,RPE1 cell growth,"10 uM, 24 h, listed as AN1",59 and 43 and 39
same,RPE1 cell growth,"10 uM, 26 h, listed as AN1",59 and 42 and 41
same,RPE1 cell growth,"10 uM, 28 h, listed as AN1",59 and 43 and 39
same,RPE1 cell growth,"10 uM, 30 h, listed as AN1",62 and 45 and 41
same,RPE1 cell growth,"10 uM, 32 h, listed as AN1",62 and 45 and 42
same,RPE1 cell growth,"10 uM, 34 h, listed as AN1",62 and 42 and 43
same,RPE1 cell growth,"10 uM, 36 h, listed as AN1",64 and 47 and 43
same,RPE1 cell growth,"10 uM, 38 h, listed as AN1",64 and 45 and 42
same,RPE1 cell growth,"10 uM, 40 h, listed as AN1",57 and 51 and 42
same,RPE1 cell growth,"10 uM, 42 h, listed as AN1",65 and 48 and 42
same,RPE1 cell growth,"10 uM, 44 h, listed as AN1",67 and 49 and 44
same,RPE1 cell growth,"10 uM, 46 h, listed as AN1",68 and 48 and 44
same,RPE1 cell growth,"10 uM, 48 h, listed as AN1",69 and 49 and 44
same,RPE1 cell growth,"10 uM, 50 h, listed as AN1",70 and 48 and 43
same,RPE1 cell growth,"10 uM, 52 h, listed as AN1",70 and 52 and 43
same,RPE1 cell growth,"10 uM, 54 h, listed as AN1",72 and 47 and 44
same,RPE1 cell growth,"10 uM, 56 h, listed as AN1",72 and 49 and 43
same,RPE1 cell growth,"10 uM, 58 h, listed as AN1",73 and 49 and 43
same,RPE1 cell growth,"10 uM, 60 h, listed as AN1",72 and 51 and 42
same,RPE1 cell growth,"10 uM, 62 h, listed as AN1",74 and 50 and 43
same,RPE1 cell growth,"10 uM, 64 h, listed as AN1",74 and 52 and 43
same,RPE1 cell growth,"10 uM, 66 h, listed as AN1",76 and 53 and 43
same,RPE1 cell growth,"10 uM, 68 h, listed as AN1",75 and 52 and 43
same,RPE1 cell growth,"10 uM, 70 h, listed as AN1",77 and 51 and 42
same,RPE1 cell growth,"10 uM, 72 h, listed as AN1",78 and 53 and 44
same,RPE1 cell growth,"10 uM, time 20 h, listed as AN1",43 and 35 and 33
same,RPE1 cell growth,"10 uM, time 22 h, listed as AN1",45 and 39 and 36
same,RPE1 cell growth,"10 uM, time 24 h, listed as AN1",50 and 42 and 38
same,RPE1 cell growth,"10 uM, time 26 h, listed as AN1",52 and 42 and 41
same,RPE1 cell growth,"10 uM, time 28 h, listed as AN1",56 and 45 and 42
same,RPE1 cell growth,"10 uM, time 30 h, listed as AN1",60 and 49 and 47
same,RPE1 cell growth,"10 uM, time 32 h, listed as AN1",64 and 53 and 50
same,RPE1 cell growth,"10 uM, time 34 h, listed as AN1",68 and 55 and 52
same,RPE1 cell growth,"10 uM, time 36 h, listed as AN1",73 and 59 and 55
same,RPE1 cell growth,"10 uM, time 38 h, listed as AN1",76 and 62 and 59
same,RPE1 cell growth,"10 uM, time 40 h, listed as AN1",80 and 67 and 64
same,RPE1 cell growth,"10 uM, time 42 h, listed as AN1",84 and 71 and 67
same,RPE1 cell growth,"10 uM, time 44 h, listed as AN1",89 and 76 and 72
same,RPE1 cell growth,"10 uM, time 46 h, listed as AN1",92 and 81 and 75
same,RPE1 cell growth,"10 uM, time 48 h, listed as AN1",95 and 84 and 79
same,RPE1 cell growth,"10 uM, time 50 h, listed as AN1",97 and 89 and 83
same,RPE1 cell growth,"10 uM, time 52 h, listed as AN1",98 and 92 and 86
same,RPE1 cell growth,"10 uM, time 54 h, listed as AN1",99 and 95 and 89
same,RPE1 cell growth,"10 uM, time 56 h, listed as AN1",99 and 97 and 92
same,RPE1 cell growth,"10 uM, time 58 h, listed as AN1",100 and 98 and 94
same,RPE1 cell growth,"10 uM, time 60 h, listed as AN1",100 and 99 and 96
same,RPE1 cell growth,"10 uM, time 62 h, listed as AN1",100 and 98
same,RPE1 cell growth,"10 uM, time 64 h, listed as AN1",100 and 99
same,RPE1 cell growth,"10 uM, time 66 h, listed as AN1",100 and 99
same,RPE1 cell growth,"10 uM, time 68 h",100
same,RPE1 cell growth,"10 uM, time 70 h",100
same,RPE1 cell growth,"10 uM, time 72 h",100
